[ ]: non-standard residue; d: D form. dPhe(4-Cl) = N[C@H](Cc1ccc(Cl)cc1)C(=O)O; d2Nal = N[C@H](Cc1ccc2ccccc2c1)C(=O)O; dCit = NC(=O)NCCC[C@@H](N)C(=O)O; d3Pal = N[C@H](Cc1cccnc1)C(=O)O
Assay: general procedure: peptide synthesis; Rink Resin
Conditions: whole synthesis

## Ac-[d2Nal][dPhe(4-Cl)][d3Pal]S[dK][dCit]LRP[dA]-NH2 (SMILES CC(=O)N[C@H](Cc1ccc2ccccc2c1)C(=O)N[C@H](Cc1ccc(Cl)cc1)C(=O)N[C@H](Cc1cccnc1)C(=O)N[C@@H](CO)C(=O)N[C@H](CCCCN)C(=O)N[C@H](CCCNC(N)=O)C(=O)N[C@@H](CC(C)C)C(=O)N[C@@H](CCCNC(=N)N)C(=O)N1CCC[C@H]1C(=O)N[C@H](C)C(N)=O)
  final HPLC purity: 98%

— patent publication US20250121078A1 (priority 2023, published 2025)
